Test results reported in PMC2905333.

Amino acid sequences for entries named in this document (tags omitted). A change or cut given only in a name is not applied to a line headed by its entry.
UniProt Q9H9V4: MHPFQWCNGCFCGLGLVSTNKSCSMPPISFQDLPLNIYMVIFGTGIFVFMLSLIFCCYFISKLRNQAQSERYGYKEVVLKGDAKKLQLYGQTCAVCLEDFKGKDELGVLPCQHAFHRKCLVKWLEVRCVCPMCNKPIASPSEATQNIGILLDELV
UniProt P49069: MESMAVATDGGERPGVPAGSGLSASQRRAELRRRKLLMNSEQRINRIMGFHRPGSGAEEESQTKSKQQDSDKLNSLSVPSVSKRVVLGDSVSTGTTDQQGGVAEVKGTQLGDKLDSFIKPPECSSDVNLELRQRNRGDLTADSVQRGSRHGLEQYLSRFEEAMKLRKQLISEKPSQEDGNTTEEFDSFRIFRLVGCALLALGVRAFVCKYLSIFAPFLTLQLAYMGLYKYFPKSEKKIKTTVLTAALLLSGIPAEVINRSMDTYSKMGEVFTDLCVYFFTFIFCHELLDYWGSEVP

Target: mut-RNF122-myc (human) (UniProt Q9H9V4)
Assay: co-IP; HEK293T cotransfected with RNF122-myc or mut-RNF122-myc and CAML-FLAG; 2.5 μg/mL MG132 for 6 h; lysed in PBS with 1% Triton X-100; immunoprecipitated with anti-myc antibody agarose beads, blot with anti-FLAG

binding: no binding
Substance: FLAG-tagged CAML (CAML-FLAG) (from UniProt P49069 1-296)

Results are given in words; binding and its absence hold for the method and conditions named. Binding seen in cells or lysates may run through a third protein.
